Measured values as given in publication PMC7279388.
Read-outs that look alike come from different tables or passages of the source. Results are given in words; binding and its absence hold for the method and conditions named. Binding seen in cells or lysates may run through a third protein. Some entries that bind do so weakly or less than the wild type.

Sequences of proteins named here, by UniProt entry; tags and fusion partners are left off.
UniProt O14744: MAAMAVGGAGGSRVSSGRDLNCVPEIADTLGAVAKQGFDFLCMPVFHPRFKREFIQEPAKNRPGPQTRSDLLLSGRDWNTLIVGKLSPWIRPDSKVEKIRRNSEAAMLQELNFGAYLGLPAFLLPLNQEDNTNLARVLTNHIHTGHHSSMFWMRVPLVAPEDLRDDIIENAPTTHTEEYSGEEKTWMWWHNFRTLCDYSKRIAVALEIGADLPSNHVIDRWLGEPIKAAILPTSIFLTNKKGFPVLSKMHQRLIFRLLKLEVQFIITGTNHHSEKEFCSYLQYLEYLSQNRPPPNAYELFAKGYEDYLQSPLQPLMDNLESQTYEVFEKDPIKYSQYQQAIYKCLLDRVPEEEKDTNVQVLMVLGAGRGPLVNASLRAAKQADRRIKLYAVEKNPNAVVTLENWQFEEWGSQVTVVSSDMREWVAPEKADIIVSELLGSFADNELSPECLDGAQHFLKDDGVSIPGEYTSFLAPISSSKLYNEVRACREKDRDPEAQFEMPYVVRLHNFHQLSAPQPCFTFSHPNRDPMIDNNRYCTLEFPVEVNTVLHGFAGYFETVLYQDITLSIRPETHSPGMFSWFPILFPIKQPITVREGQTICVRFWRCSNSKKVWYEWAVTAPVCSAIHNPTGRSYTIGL
UniProt Q04206: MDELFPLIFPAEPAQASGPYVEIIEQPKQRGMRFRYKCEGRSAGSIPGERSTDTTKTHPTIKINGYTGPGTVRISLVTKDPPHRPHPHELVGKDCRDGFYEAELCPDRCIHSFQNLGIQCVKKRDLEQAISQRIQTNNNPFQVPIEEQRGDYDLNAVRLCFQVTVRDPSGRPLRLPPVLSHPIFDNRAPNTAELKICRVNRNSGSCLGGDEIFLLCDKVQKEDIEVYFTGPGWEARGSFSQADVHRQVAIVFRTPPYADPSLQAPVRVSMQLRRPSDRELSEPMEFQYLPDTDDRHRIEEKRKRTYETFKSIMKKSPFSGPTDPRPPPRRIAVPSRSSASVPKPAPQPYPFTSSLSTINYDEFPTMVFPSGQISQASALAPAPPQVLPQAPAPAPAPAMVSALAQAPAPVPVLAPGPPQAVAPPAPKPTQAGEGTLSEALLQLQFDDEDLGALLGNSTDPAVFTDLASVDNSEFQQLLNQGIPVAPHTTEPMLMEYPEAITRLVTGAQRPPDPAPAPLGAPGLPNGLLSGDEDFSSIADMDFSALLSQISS

How the values were obtained:
[1] = target: FLAG-WT-PRMT5 (protein arginine methyltransferase 5, wild type) (human) (UniProt O14744); test: co-IP; FLAG-PRMT5 proteins immunoprecipitated with anti-FLAG-M2 beads from lysates of stable HEK293 and HT29 cells, treated or not with 10 ng/mL IL-1β for 1 h; 1% Triton X-100, 50 mM Tris-HCl pH 7.4, 150 mM NaCl, 1 mM EDTA; 4 °C overnight; Western blot of the partner
[2] = target: FLAG-WT-PRMT5 (protein arginine methyltransferase 5, wild type) (human) (UniProt O14744); test: as above; remark: listed apart in the source

binding [1]	binding [2]	Molecule
binds		p65 subunit of NF-κB (RelA) (from UniProt Q04206 1-551)
	binds	PKCι (enzyme, UniProt P41743 1-596) MPTQRDSSTMSHTVAGGGSGDHSHQVRVKAYYRGDIMITHFEPSISFEGLCNEVRDMCSFDNEQLFTMKWIDEEGDPCTVSSQLELEEAFRLYELNKDSELLIHVFPCVPERPGMPCPGEDKSIYRRGARRWRKLYCANGHTFQAKRFNRRAHCAICTDRIWGLGRQGYKCINCKLLVHKKCHKLVTIECGRHSLPQEPVMPMDQSSMHSDHAQTVIPYNPSSHESLDQVGEEKEAMNTRESGKASSSLGLQDFDLLRVIGRGSYAKVLLVRLKKTDRIYAMKVVKKELVNDDEDIDWVQTEKHVFEQASNHPFLVGLHSCFQTESRLFFVIEYVNGGDLMFHMQRQRKLPEEHARFYSAEISLALNYLHERGIIYRDLKLDNVLLDSEGHIKLTDYGMCKEGLRPGDTTSTFCGTPNYIAPEILRGEDYGFSVDWWALGVLMFEMMAGRSPFDIVGSSDNPDQNTEDYLFQVILEKQIRIPRSLSVKAASVLKSFLNKDPKERLGCHPQTGFADIQGHPFFRNVDWDMMEQKQVVPPFKPNISGEFGLDNFDSQFTNEPVQLTPDDDDIVRKIDQSEFEGFEYINPLLMSAEECV
